According to PMC7819943, “Rice protein-binding microarrays: a tool to detect cis-acting elements near promoter regions in rice”:
This is one part of the list.

molecular target: T1, OsSMF1 (Oryza sativa, UniProt Q6ZLB0 1-436); experiment: protein-binding microarray (RPBM); PBS, 2% BSA, 51.3 ng/ul salmon testes DNA, 50 uM zinc acetate, 200 nM TF, 25 C, 1 h; high values mean tight binding; settings: protein: recombinant; tags: N-terminal polyhistidine and DsRed monomer fusion (pET32a); chain copies: 2; label: CyDye5-dUTP incorporated in the synthesized complementary strand; 3' TTTTT single-stranded linker to array surface; dsDNA, one strand shown
T1 sequence: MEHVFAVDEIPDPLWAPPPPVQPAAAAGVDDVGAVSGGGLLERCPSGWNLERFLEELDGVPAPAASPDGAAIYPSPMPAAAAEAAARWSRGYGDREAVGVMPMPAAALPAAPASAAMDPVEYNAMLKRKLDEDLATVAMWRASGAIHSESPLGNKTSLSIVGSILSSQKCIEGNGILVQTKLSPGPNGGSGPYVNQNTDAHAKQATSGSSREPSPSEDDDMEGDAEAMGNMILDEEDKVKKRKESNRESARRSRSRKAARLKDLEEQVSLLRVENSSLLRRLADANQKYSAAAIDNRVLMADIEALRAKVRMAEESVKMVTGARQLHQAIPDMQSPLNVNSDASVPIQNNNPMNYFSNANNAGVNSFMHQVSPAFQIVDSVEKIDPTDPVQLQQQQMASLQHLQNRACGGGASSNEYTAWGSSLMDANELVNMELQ
In short: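 Per-feature fluorescence intensity (arbitrary units), read on an Axon 4000B scanner, is the binding signal. Transcription factors carrying an N-terminal polyhistidine tag and DsRed fusion were expressed in E. coli BL21-CodonPlus and purified on Ni–NTA. A custom Agilent array, made double-stranded by primer extension with Cy5-dUTP and blocked with 2% BSA, was incubated with 200 nM protein in PBS, 2% BSA, salmon testes DNA and 50 µM zinc acetate at 25 °C for 1 h and then washed.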

Going from “GGTGTCTTGTCCGGCTGCGTCACGCAACCGGTGCCCAATGCGGAGTCACCTAGTGCAG” to “TCGGGTGAGCGAGTGAGTGGGCGAGGAGGCGCGGCGGCGGCGGAGTCACCTAGTGCAG”, the binding signal falls from 10400 fluorescence intensity (a.u.) to 3800 fluorescence intensity (a.u.).

First: CGCAGCCGTCGATTCCTCCTACGTGGCTCAATCCCATCCGCGGAGTCACCTAGTGCAG
Second: ATAACCACAATAGTTATGACTGTACTACTTACTCTTTATACGGAGTCACCTAGTGCAG
The binding signal of the first is higher: 11500 fluorescence intensity (a.u.) for the first, 5860 fluorescence intensity (a.u.) for the second.

Going from “GCACGATCCATCCATCCACGCCACGCTGAATACTTCGCTCCGGAGTCACCTAGTGCAG” to “GTCCCTTGCTGTCAGCAGACTTCATTATATTTCAACAATGCGGAGTCACCTAGTGCAG”, the binding signal rises from 3230 fluorescence intensity (a.u.) to 4050 fluorescence intensity (a.u.).

First: CAGGCGGCTGGGCCTAGCTGTCAGTGACACGTCAGAGCGCCGGAGTCACCTAGTGCAG
Second: TTGTAAGTTGGATGATGCGTCATATCTAGTTTTACGGTTGCGGAGTCACCTAGTGCAG
The binding signal of the first is higher: 12000 fluorescence intensity (a.u.) for the first, 8270 fluorescence intensity (a.u.) for the second.

First: AACCCATGTCATCAATGTTGAGCTGTCCCGTGATTTGTTCCGGAGTCACCTAGTGCAG
Second: CTGCTGATGCCATGCCACACCTGAGGTCATCCGCTCGCGCCGGAGTCACCTAGTGCAG
The binding signal of the first is higher: 6620 fluorescence intensity (a.u.) for the first, 5540 fluorescence intensity (a.u.) for the second.

Compared with “GGAACATGTATGCACCGAACCTGGTGCATGTCCACGTTCACGGAGTCACCTAGTGCAG”, “GCATTGTAGCTAGGGGCCTATTGTAGACCTTATGAGTTTTCGGAGTCACCTAGTGCAG” is higher in binding signal: 3740 fluorescence intensity (a.u.) for the first, 4860 fluorescence intensity (a.u.) for the second.

First: GTCGCCGGACATCCTCAGGGACGACCGCTTCGCCGTCCGCCGGAGTCACCTAGTGCAG
Second: TTGTTGTGGAATGATTCATAGATCCGTCCTCCTTTACTGTCGGAGTCACCTAGTGCAG
The binding signal of the first is higher: 24300 fluorescence intensity (a.u.) for the first, 3360 fluorescence intensity (a.u.) for the second.

Compared with “CCCTTTACGAATCACGAGTATTTTGTGAATCATGGGAGTACGGAGTCACCTAGTGCAG”, “AGCTGCATATGCTACACGCATTGTTAGTTTGCATGCAAGCCGGAGTCACCTAGTGCAG” is higher in binding signal: 3470 fluorescence intensity (a.u.) for the first, 4090 fluorescence intensity (a.u.) for the second.

First: CGCAGCACGCACGCACGCAGACACGCCCACGCGTTGCGGCCGGAGTCACCTAGTGCAG
Second: TGGTGCCATGTCCGTGCATTCACAGCAGTGTTTGTTATTCCGGAGTCACCTAGTGCAG
The binding signal of the first is lower: 3550 fluorescence intensity (a.u.) for the first, 3810 fluorescence intensity (a.u.) for the second.

Going from “CAGTAGAGCTGTAGAGCACACATCATTCTCGTTCTCCTCCCGGAGTCACCTAGTGCAG” to “TATGCATGAGAATGACACGTGGAGCATAGCCGAGCCTCCACGGAGTCACCTAGTGCAG”, the binding signal rises from 3630 fluorescence intensity (a.u.) to 7820 fluorescence intensity (a.u.).

Compared with “GCGTTTGCCAGCCGGCCGCCTGCCATTGTGCCTTTCTGCGCGGAGTCACCTAGTGCAG”, “CCACCGGAGCTGGGACAGCTGACACAGCTGCGGTGGCTGACGGAGTCACCTAGTGCAG” is higher in binding signal: 3310 fluorescence intensity (a.u.) for the first, 3430 fluorescence intensity (a.u.) for the second.

Compared with “GCACAGTAAGTCATGCCCACGTGGGCCACAAACTAGCTAGCGGAGTCACCTAGTGCAG”, “CCAAAACAAACAAAGCAAGAGCGAAGATGAACACAATATCCGGAGTCACCTAGTGCAG” is lower in binding signal: 10500 fluorescence intensity (a.u.) for the first, 4090 fluorescence intensity (a.u.) for the second.

First: CGCTCCTCGCCGCCTTGAACCTCACAGCGAAACCTGATCACGGAGTCACCTAGTGCAG
Second: TTTTCAATTGTACATTGAGTCATTGACAATGCACAATTTACGGAGTCACCTAGTGCAG
The binding signal of the first is lower: 3270 fluorescence intensity (a.u.) for the first, 3680 fluorescence intensity (a.u.) for the second.

First: GCGGCGCCATCGACAGAAAGAGCAGAATCTAGCATGCACGCGGAGTCACCTAGTGCAG
Second: ATAATTAGTCGTGTGCATCACCGTCATCTGGTATCTCTTGCGGAGTCACCTAGTGCAG
The binding signal of the first is lower: 5420 fluorescence intensity (a.u.) for the first, 7000 fluorescence intensity (a.u.) for the second.

Going from “GCTCCATGGAAGCATGGAAGATGGAACATGACGTAAAATCCGGAGTCACCTAGTGCAG” to “ACAAAAGATAATCCACGTCTTCATAGCGTAAAATTTAAGGCGGAGTCACCTAGTGCAG”, the binding signal falls from 3390 fluorescence intensity (a.u.) to 3330 fluorescence intensity (a.u.).

Going from “CTCATGATGGCTTTATCAATATCAAGATTTGATGACTCAGCGGAGTCACCTAGTGCAG” to “TACGTACGTGCCGCTTTCGCCACGCGCCATGCATGCACCACGGAGTCACCTAGTGCAG”, the binding signal falls from 15400 fluorescence intensity (a.u.) to 4990 fluorescence intensity (a.u.).

Compared with “TCTTCAGCTGAAGCACATGATTCATCAAGTATATGGAAGCCGGAGTCACCTAGTGCAG”, “GGATCCAGCTCATGTACGTTACATTACACCCTCTTCTCGTCGGAGTCACCTAGTGCAG” is higher in binding signal: 3570 fluorescence intensity (a.u.) for the first, 5720 fluorescence intensity (a.u.) for the second.

Going from “CTCTCCACTTCTCTCCTCCACCTCATCACCCAATCCAATGCGGAGTCACCTAGTGCAG” to “GTCTCGCCACATACTACGCTTCAGTCTTCTTCTTCCTCCACGGAGTCACCTAGTGCAG”, the binding signal rises from 4660 fluorescence intensity (a.u.) to 4720 fluorescence intensity (a.u.).

First: GGTCGGAGGTGCATCGAAATGCACAACCAAAGCCACATGCCGGAGTCACCTAGTGCAG
Second: TCAAGCTATACCTGGGGCGGAATCTGGCTGTCCCCAAAGTCGGAGTCACCTAGTGCAG
The binding signal of the first is higher: 15800 fluorescence intensity (a.u.) for the first, 3500 fluorescence intensity (a.u.) for the second.

First: TGAACCTCGAAGATGCAAATATGTAGTAGTACGTAGGTCCCGGAGTCACCTAGTGCAG
Second: CTTTCTCTCTCTTGGAATCAACTGGAAAGCTAGGCACGCACGGAGTCACCTAGTGCAG
The binding signal of the first is lower: 3310 fluorescence intensity (a.u.) for the first, 3360 fluorescence intensity (a.u.) for the second.

Going from “TGTCCATCTCTAGGTACACGTGGCTGGTGCCAACCCACATCGGAGTCACCTAGTGCAG” to “GCCGCGTCTATACGCGATCTCGATGACACGTGGGGCCGGACGGAGTCACCTAGTGCAG”, the binding signal falls from 16300 fluorescence intensity (a.u.) to 7710 fluorescence intensity (a.u.).

Compared with “TCTCGCGCCTCGCTGCCACGCCGCGCCGACGCCGTCGCCCCGGAGTCACCTAGTGCAG”, “ATGCCCATTTTGTAGCGTCGATTCTTGTTTCTGCTTGATTCGGAGTCACCTAGTGCAG” is higher in binding signal: 3160 fluorescence intensity (a.u.) for the first, 3630 fluorescence intensity (a.u.) for the second.

First: CGACTGTAGTATATGGCGTCATATTTCTAACAACTCCGATCGGAGTCACCTAGTGCAG
Second: GATATGCGGCTAAGATCGAGGCATGACACGAGTTTTCGGACGGAGTCACCTAGTGCAG
The binding signal of the first is higher: 12100 fluorescence intensity (a.u.) for the first, 5220 fluorescence intensity (a.u.) for the second.

First: CCATTTTGTCAGGAACCAGAGTGATGTTGATGCAATCATGCGGAGTCACCTAGTGCAG
Second: TAGCTCAGGGCCTAGGATTCAGAGCCCATATAGAGACATACGGAGTCACCTAGTGCAG
The binding signal of the first is lower: 3150 fluorescence intensity (a.u.) for the first, 3180 fluorescence intensity (a.u.) for the second.

Compared with “AGTTGCAACACAACATGTTATTCCATCTTTACAGGGTGCCCGGAGTCACCTAGTGCAG”, “ACCAACGAACGGACGCTGTCATGTCACCTCTCTTAATCTTCGGAGTCACCTAGTGCAG” is lower in binding signal: 4000 fluorescence intensity (a.u.) for the first, 3740 fluorescence intensity (a.u.) for the second.

Going from “ACCGGCTGATCTGCCGCCTGACGACGTGCACGGCCGCCGGCGGAGTCACCTAGTGCAG” to “ATGTCTCGTTATCTCCTAAACATGTCATTACACTGGAAACCGGAGTCACCTAGTGCAG”, the binding signal falls from 3300 fluorescence intensity (a.u.) to 3240 fluorescence intensity (a.u.).

Going from “GTATTAGTGGATAATGATGTAACATATTTGCATGTTTAGCCGGAGTCACCTAGTGCAG” to “ACGAGATGAATCTTTTAACCTAGCTAGTCCATGATTAGCTCGGAGTCACCTAGTGCAG”, the binding signal falls from 17800 fluorescence intensity (a.u.) to 3350 fluorescence intensity (a.u.).
